Test results as given in paper PMC11984905, “Chiral Switch of Gadopiclenol: New Standards in MRI Probes” (Advanced Science, 2025).

Assay: 1H NMRD profiles and 17O NMR relaxometry in water
Format: physicochemical
Conditions: for Δ^2 / τv / ^SSτR: 298 K
Description: The magnetic‐field dependence of the longitudinal relaxation rate of water protons (^1H NMRD) were measured in aqueous solution by using a variable field relaxometer equipped with an HTS‐110 3T Metrology Cryogen‐free Superconducting Magnet (Mede, Italy), operating in the overall range of proton Larmor frequencies of 20–120 MHz (0.47–3.00 T). The measurements were performed using the standard inversion recovery sequence (20 experiments, 3 scans) with a 90° pulse width of 3.5 µs. The temperature was controlled with a Stelar VTC‐91 heater airflow. Additional points in the 0.01–10 MHz frequency range were collected on a Fast‐Field Cycling (FFC) Stelar SmarTracer Relaxometer. T 1 values at 500 MHz were collected on a Bruker Avance III NMR spectrometer operating at 11.7 T. The concentration of Gd^3+ in the solutions was determined by using bulk magnetic susceptibility (BMS) shift measurements performed at 11.7 T. For the measurements in the biological fluid, lyophilized plasma matrix (Siemens Healthcare) was added to 1 mL of [Gd(ent‐L2)] (1.0 mM) or Seronorm (Sero) was solubilized in 5 mL [Gd(ent‐L2)] (1.0 mM) solution. ^1H NMRD of the final solution was measured at 310 K.
The spectra were acquired on a Bruker Avance III spectrometer (11.7 T) using a 5 mm probe under temperature control. An aqueous solution of the complexes ([GdL] = 10–15 mM) was enriched to ca. 2.0% of the ^17O isotope (Cambridge Isotope). The transverse relaxation rates (R 2) were measured as a function of temperature in the 278−350 K range. The simultaneous fit of ^1H NMRD and ^17O NMR profiles data was performed using the Micromath Scientist software (version 2.0, Salt Lake City, UT, USA).

| Structure (SMILES) | AO1/h | AO2/h | ΔHM1 | ΔHM2 | Δ^2 | τv | ^SSτR |
| --- | --- | --- | --- | --- | --- | --- | --- |
| O=C([O-])CCC(C(=O)[O-])N1CCN(C(CCC(=O)[O-])C(=O)[O-])Cc2cccc(n2)CN(C(CCC(=O)[O-])C(=O)[O-])CC1.[Gd+3] (mixture of isomers) [[Gd(rac‐L1)]^3−] [2,2’,2’’-[3,6,9,15-tetraazabicyclo[9.3.1]pentadeca-1(15),11,13-triene-3,6,9-triyl]tris(4-carboxybutanoate)gadolinium] | -3.5±0.1 10^6 rad s^-1 | -2.5±0.1 10^6 rad s^-1 | 6.45 ± 0.24 kcal/mol | 3.35 ± 0.72 kcal/mol | 2.1±0.1 10^19 s^-2 | 34±2 ps | – |
| O=C([O-])CCC(C(=O)[O-])N1CCN(C(CCC(=O)[O-])C(=O)[O-])Cc2cccc(n2)CN(C(CCC(=O)[O-])C(=O)[O-])CC1.[Gd+3] (racemic) [[Gd(ent‐L1)]^3−] | -3.8±0.1 10^6 rad s^-1 | -2.7±0.1 10^6 rad s^-1 | 7.41 ± 0.48 kcal/mol | 4.54 ± 0.48 kcal/mol | 1.9±0.1 10^19 s^-2 | 37±1 ps | 68±2 ps |
| O=C(CCC(C(=O)[O-])N1CCN(C(CCC(=O)NCC(O)CO)C(=O)[O-])Cc2cccc(n2)CN(C(CCC(=O)NCC(O)CO)C(=O)[O-])CC1)NCC(O)CO.[Gd+3] (stereo not drawn) [[Gd(ent‐L2)]] | -3.8±0.1 10^6 rad s^-1 | -2.5±0.1 10^6 rad s^-1 | 7.41 ± 0.24 kcal/mol | 5.5 ± 0.24 kcal/mol | 2.4±0.1 10^19 s^-2 | 38±1 ps | 82±1 ps |
